Results taken from patent US8114412B2, “T. cruzi-derived neurotrophic agents and methods of use therefor” (priority 1999, dated 2012).
“Also recorded” adds a separate entry of the source. For at least one compound, name, drawing or mass did not settle the structure.

Test system: PC12 cells
Assay: Reversal of TS-induced neuroprotection by PI-3 kinase inhibitors in PC12 cells
Format: cell-based, rat
Conditions: inhibitor added after 24 hr in TS-F 100 ng/ml; viability 24 hours later by DAPI
Method: Protection against apoptosis of PC12 cells in serum-free medium containing a test agent (agent N)(e.g., protection induced by TS, TS fragments, NGF or other growth factors), was calculated by the formula: 100%-[(apoptosis(%) of cells kept in RPMI containing test agent N÷apoptosis (%) of cells kept in RPMI)×100%]. Testing the effect of wortmannin (Sigma) and LY294002 (Sigma) in inhibiting the neuroprotection of TS was performed following the protocol described by others (Yao and Cooper, Science, 267:2003-2006 (1995); D'Mello et al., J. Neurosci 17:1548-1560 (1997)). In brief, PC12 cells were switched from growth medium to RPMI without and with TS or various other growth factors. After 24 hr, wortmannin and LY294002 were added to the cultures. After another 24 hrs, cells were examined for apoptosis by the DAPI assay, as above.

## O=c1cc(N2CCOCC2)oc2c(-c3ccccc3)cccc12 [LY294002, reference compound]
  reversal of survival-promoting activity of TS-F (or NGF) in PC12 cells: induced apoptosis; also recorded: reversal of the survival-promoting activity
